For one substance, binding results are on record in paper doi:10.1101/723940.

Protein sequences, listed by entry. Tags and fused reporters are not part of them. Lines headed by an entry give the natural chain unless they say otherwise; changes in a name come on top.
UniProt Q9Y696: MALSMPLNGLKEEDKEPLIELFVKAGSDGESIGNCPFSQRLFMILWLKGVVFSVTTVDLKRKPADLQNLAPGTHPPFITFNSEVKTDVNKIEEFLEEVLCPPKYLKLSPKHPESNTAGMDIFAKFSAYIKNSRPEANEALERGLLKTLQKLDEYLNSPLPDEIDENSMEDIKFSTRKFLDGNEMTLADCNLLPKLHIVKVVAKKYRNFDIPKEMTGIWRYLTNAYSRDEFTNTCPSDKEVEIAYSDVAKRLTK
UniProt Q9P289: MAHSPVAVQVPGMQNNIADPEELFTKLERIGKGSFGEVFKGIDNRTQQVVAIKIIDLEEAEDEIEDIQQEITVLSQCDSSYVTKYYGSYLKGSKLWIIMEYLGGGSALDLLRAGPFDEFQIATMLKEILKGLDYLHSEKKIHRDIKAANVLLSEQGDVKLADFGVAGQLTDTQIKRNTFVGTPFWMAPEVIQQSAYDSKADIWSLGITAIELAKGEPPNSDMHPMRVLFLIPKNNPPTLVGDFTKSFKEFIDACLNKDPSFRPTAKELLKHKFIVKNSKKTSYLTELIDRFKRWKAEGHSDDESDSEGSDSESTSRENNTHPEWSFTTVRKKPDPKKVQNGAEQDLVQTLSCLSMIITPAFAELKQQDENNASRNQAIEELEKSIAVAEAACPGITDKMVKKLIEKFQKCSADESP

No constants are given. Whether binding was seen depends on the method and setting. Binding seen in cells or lysates may run through a third protein. A result given as binding can be weak or reduced; the word gives no strength.

The target of the experiment is GST-CLIC4 (chloride intracellular channel 4) (UniProt Q9Y696). Description: pull-down.

For “MST4 kinase (from UniProt Q9P289 1-416) (enzyme)”, the binding entry is on record as “binds”.
